This passage reports AC50 results from PubChem BioAssay AID493014 (National Center for Advancing Translational Sciences (NCATS), 2011).

By AC50 is commonly meant the concentration at which the activity in the assay is half-maximal.

This is one part of the list. Shown are side measurements of this screen, not its main read-out; they come without a call. Compounds called inactive in the main read-out are mostly missing here. Words in brackets tell the shape of the fitted curve; partial curves, single points and poor fits give uncertain potencies.

A short description of this test: qHTS Assay to Find Inhibitors of Chronic Active B-Cell Receptor Signaling. To be noted: ABC-DLBCL IkBa-CBG/CBR reporter, luminescence ratio (green luciferase fused to IkBa over red control in TMD8 lymphoma cells), 4 h. The essentials: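 Compounds up to 46 uM were incubated four hours with TMD8 cells whose green CBG68 luciferase is fused to IkappaBalpha; red CBR luminescence normalised the signal, and concentration-effect curves were fitted to fusion, red and ratio data.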
In general terms: Quantitative high-throughput screening tests each substance at several concentrations.

[1] abbreviates: measured here: CBR red luminescence, cell number.
[2] abbreviates: measured here: IkBa-CBG green luminescence.

With `O=C(Nc1ccc(S(=O)(=O)N2CCCCCC2)cc1)c1c(F)cccc1F`, the AC50 under setting [1] was 35.5 µM [falling, single point].
Still for that read-out and setting: the same measure for `O=C(N1CCOCC1)N1CCN(c2nc(-c3ccccc3)cs2)CC1`: 0.631 µM [rising, partial curve, poor fit].
The same measure, in the same setting: the figure for `C=CCNc1nnc(SCC(=O)N2CCCCC2)c2ccccc12` is 28.2 µM [rising, single point].
Still for that read-out and setting: the same measure for `CCn1nc(C)c(/C=N/NC(=O)Cn2cncn2)c1C`: 4.47 µM [falling, partial curve, poor fit]; for `COC(=O)c1c(S(=O)(=O)NCc2ccccc2)sc(C(=O)O)c1C`: 20.6 µM [falling, single point]; for `CCOC(=O)C(=CNc1cccc(C)n1)C(=O)OCC`: 11.2 µM [falling, partial curve].
As for `O=C(Nc1ccc(Nc2ccncc2)cc1)c1ccc(Nc2ccnc3ccc([N+](=O)[O-])cc23)cc1[N+](=O)[O-]`, under setting [1], the AC50 was 3.98 µM [falling, full curve, poor fit].
On the same count and under the same terms, the same measure for `C/C=C(/C)C(=O)OC1Cc2c(ccc3ccc(=O)oc23)OC1(C)C` (stereo not given): 11.2 µM [falling, partial curve]; for `O=C(CCn1nnc2ccccc21)OCC(=O)c1ccc([N+](=O)[O-])cc1`: 0.112 µM [falling, full curve, poor fit]; for `CS/C(=N\S(=O)(=O)c1cccs1)Nc1ccc(F)cc1`: 20.6 µM [falling, single point].
`Cc1ccc(-c2nc3scc(CCNS(=O)(=O)c4ccc(Oc5ccccc5)cc4)n3n2)cc1`: the AC50 under setting [2] was 11.2 µM [falling, partial curve, poor fit].
For the molecule `Cc1cccc(/C(N)=N/OC(=O)N2c3ccccc3Sc3ccccc32)c1`, the AC50 under setting [1] is 1.12 µM [rising, full curve, poor fit].
On the same count and under the same terms, the same measure for `Cc1ccc(C)c(OC2=NS(=O)(=O)c3ccccc32)c1`: 0.112 µM [rising, full curve, poor fit]; for `COc1ccc(NC(=O)COC(=O)CC2CCCC2)cc1`: 0.517 µM [rising, full curve].
Still for that read-out and setting: the figure for `N#Cc1ccccc1NC(=O)CN1C(=O)NC(Cc2c[nH]c3ccccc23)C1=O` (stereo not given) is 10.3 µM [falling, partial curve, poor fit]; for `O=C(NNC(=O)c1ccccc1Br)c1ccc2nc[nH]c2c1` it is 35.5 µM [falling, single point].
On the same count and under the same terms, the figure for `COc1ccc(NC(=O)c2cc3ccccc3o/c2=N\NS(=O)(=O)c2ccc(C)cc2)cc1` is 20 µM [falling, partial curve, poor fit]; for `CCOc1ccc(S(=O)(=O)Nc2ccc(C(=O)N/N=C(\C)c3ccc(-n4ccnc4)cc3)cc2)cc1` it is 0.146 µM [falling, full curve, poor fit]; for `CCOC(=O)Nc1sc2c(c1C(=O)OCC)CCC2` it is 6.51 µM [rising, partial curve, poor fit].
With `CN1CCN(c2nc3c(c(=O)n(C)c(=O)n3C)n2Cc2cccc(Br)c2)CC1`, the AC50 under setting [1] was 35.5 µM [falling, single point].
On the same count and under the same terms, the figure for `Cc1ccc(Sc2ccc(CN3CCCCC3)cc2[N+](=O)[O-])cc1` is 35.5 µM [rising, single point]; for `COc1ccc(NC(=O)COc2ccccc2C#N)c(S(=O)(=O)N2CCCCC2)c1` it is 8.91 µM [falling, partial curve, poor fit].
For `C/C(=N\NC(=S)Nc1ccc(C)cc1)c1cccc(N)c1`, the AC50 under setting [2] was 12.6 µM [falling, partial curve, poor fit].
On to `CC(=O)Nc1cccc(N=NN2CCOCC2)c1`, for which the half-maximal activity concentration (AC50) under setting [1] was 3.55 µM [falling, single point].
Still for that read-out and setting: the same measure for `COc1ccc(C/C(C)=N/NC(=O)c2cc(C)oc2C)cc1`: 8.2 µM [falling, partial curve]; for `O=C(N/N=C/c1ccc(O)cc1)c1cc(C2CC2)[nH]n1`: 35.5 µM [falling, single point]; for `COc1ccc(-c2ccc(-c3noc(-c4ccc(OC)c(OC)c4)n3)c(OC)n2)cc1`: 15.8 µM [rising, single point].
On the same count and under the same terms, the figure for `Nc1nc(NCc2ccccc2)nc(-c2ccccc2)n1` is 25.9 µM [falling, single point]; for `Cc1ccc(Cn2ccsc2=NC(=O)CCl)cc1` it is 7.94 µM [falling, partial curve]; for `O=C(CSc1ncnc2sc3c(c12)CCC3)Nc1ccccc1C(=O)O` it is 1.12 µM [falling, partial curve, poor fit].
On the same count and under the same terms, the figure for `O=C(NC1CCCC1)c1cc(-c2ccccc2Cl)on1` is 12.6 µM [falling, partial curve].
Consider `COc1cc(/C=N/NC(=O)c2cc(C)oc2C)cc(OC)c1OC`, for which the AC50 under setting [1] is 3.98 µM [falling, full curve, poor fit] and the AC50 under setting [2] is 15.8 µM [rising, partial curve, poor fit].
Take `O=C(O)c1ccc(Oc2cc(Oc3ccc(C(=O)O)cc3)cc([N+](=O)[O-])c2)cc1`: the AC50 under setting [1] is 1.41 µM [falling, full curve].
Turning to `C=CCNC(=O)COc1ccc(Br)cc1Cl`, the AC50 under setting [1] is 7.08 µM [rising, partial curve].
On the same count and under the same terms, the same measure for `CCCc1ccc(-c2cc(C(=O)NCCc3ccc(S(N)(=O)=O)cc3)c3ccccc3n2)cc1`: 35.5 µM [falling, single point].
Still for that read-out and setting: the figure for `O=C1Nc2ccccc2C1(O)c1ccccc1` (stereo not given) is 1.12 µM [rising, full curve, poor fit]; for `Cc1ccc([N+](=O)[O-])cc1NC(=O)CCSc1ccc(Cl)cc1` it is 29.1 µM [rising, single point]; for `O=C(NCC1CCCO1)/C(=C/c1ccc(Cl)cc1)NC(=O)c1ccccc1` (stereo not given) it is 7.31 µM [rising, partial curve].
Turning to `Cc1nc2ccc(NC(=O)COc3ccccc3[N+](=O)[O-])cc2s1`, the AC50 under setting [1] is 0.501 µM [rising, full curve].
The same measure, in the same setting: the figure for `O=C(NCc1ccco1)C(C(=O)c1ccccc1)n1ccccc1=O` (stereo not given) is 0.631 µM [rising, partial curve, poor fit]; for `CC(=O)Nc1ccc2nc(-c3ccco3)[nH]c2c1` it is 22.4 µM [falling, single point].
The same measure, in the same setting: the same measure for `O=C(c1cccc2ccccc12)N1CCN=C1SCc1ccc([N+](=O)[O-])cc1`: 0.164 µM [rising, full curve, poor fit]; for `O=C(Nc1ccc(F)cc1)Nc1nnc(SCC(=O)N2CCCCC2)s1`: 35.5 µM [rising, partial curve, poor fit].
The same measure, in the same setting: the same measure for `N#CCCn1nc(-c2ccccc2)cc1Nc1ccccc1NC(=O)c1cccs1`: 12.6 µM [falling, single point].
With `C=CCOc1ccc(C(=O)CC)cc1OC`, the AC50 under setting [1] was 25.9 µM [rising, single point].
For `Cn1c(=O)[nH]c2nnc(-c3ccc(Cl)c(Cl)c3)nc2c1=O`, the half-maximal activity concentration (AC50) under setting [1] is 0.631 µM [falling, full curve, poor fit].
On the same count and under the same terms, the same measure for `O=C(NCC(=O)N1CCN(c2ccccc2)CC1)c1ccccc1`: 8.91 µM [falling, partial curve, poor fit]; for `O=C(CSc1nnc(-c2cccs2)n1-c1cccc(Cl)c1)c1cccc2c1OCCO2`: 20.6 µM [rising, partial curve, poor fit].
The same measure, in the same setting: the figure for `O=c1oc2ccccc2c(Nc2cc3ccccc3cc2O)c1[N+](=O)[O-]` is 12.6 µM [falling, partial curve]; for `Cc1nc2ncnn2c(C)c1Cc1c(Cl)cccc1Cl` it is 3.26 µM [rising, partial curve, poor fit].
Consider `CN(C)CCN(C(=O)c1ccc(N2C(=O)CCC2=O)cc1)c1nc2cc3c(cc2s1)OCO3`, for which the AC50 under setting [1] was 17.8 µM [falling, single point].
Still for that read-out and setting: the figure for `CC(C)N(C(=O)CSc1ncnc2sc(-c3ccccc3)cc12)C(C)C` is 10.3 µM [rising, single point]; for `Cc1ccc2nc(-c3ccc(NC(=O)CN(c4ccccc4C)S(C)(=O)=O)cc3)sc2c1` it is 0.00411 µM [rising, full curve, poor fit].
The same measure, in the same setting: the figure for `Cc1cnc([N+](=O)[O-])n1CCOC(=O)NC(=O)c1ccccc1Cl` is 35.5 µM [falling, single point]; for `O=C(COc1ccc(Cl)cc1)NCCc1ccccn1` it is 10 µM [rising, partial curve].
On the same count and under the same terms, the figure for `NS(=O)(=O)c1cccc(NC(=O)COC(=O)CNC(=O)c2ccc(-c3ccccc3)cc2)c1` is 11.6 µM [falling, single point]; for `CCOc1ccc(/C=N/NC(=O)c2ccccc2NC(=O)c2ccc(OC)cc2)cc1` it is 6.51 µM [falling, partial curve].
Take `CCOC(=O)N1CCN(S(=O)(=O)c2ccc(C(=O)Nc3nc4ccc(F)cc4s3)cc2)CC1`: the AC50 under setting [1] is 1.26 µM [falling, full curve, poor fit].
As to `CCOC(=O)c1c2ccc(OCC(=O)NN)cc2n2ccccc12`, the AC50 is 35.5 µM [falling, single point] under setting [1] and 35.5 µM [rising, partial curve, poor fit] under setting [2].
Consider `Cc1ccc(C(=O)N2CCCC(CCC(=O)N3CCN(c4ccccn4)CC3)C2)s1` (stereo not given), for which, under setting [1], the AC50 is 35.5 µM [falling, single point].
On the same count and under the same terms, the figure for `CCOc1ccccc1NC(=O)CSc1nc2ccccc2nc1N1CCCC1` is 5.62 µM [falling, single point]; for `CCOC(=O)C(C)On1c(-c2ccccc2)nc2ccc([N+](=O)[O-])cc21` (stereo not given) it is 20.6 µM [falling, partial curve].
Still for that read-out and setting: the figure for `COC(=O)c1[nH]c2cccc(Cl)c2c1NC(=O)CN1CCCCC1C` (stereo not given) is 2.82 µM [rising, partial curve].
